# Library screen at single concentrations

Protein sequences, listed by entry. Tags and fused reporters are not part of them. Residues count along the entry.
UniProt A4I591, 1-473: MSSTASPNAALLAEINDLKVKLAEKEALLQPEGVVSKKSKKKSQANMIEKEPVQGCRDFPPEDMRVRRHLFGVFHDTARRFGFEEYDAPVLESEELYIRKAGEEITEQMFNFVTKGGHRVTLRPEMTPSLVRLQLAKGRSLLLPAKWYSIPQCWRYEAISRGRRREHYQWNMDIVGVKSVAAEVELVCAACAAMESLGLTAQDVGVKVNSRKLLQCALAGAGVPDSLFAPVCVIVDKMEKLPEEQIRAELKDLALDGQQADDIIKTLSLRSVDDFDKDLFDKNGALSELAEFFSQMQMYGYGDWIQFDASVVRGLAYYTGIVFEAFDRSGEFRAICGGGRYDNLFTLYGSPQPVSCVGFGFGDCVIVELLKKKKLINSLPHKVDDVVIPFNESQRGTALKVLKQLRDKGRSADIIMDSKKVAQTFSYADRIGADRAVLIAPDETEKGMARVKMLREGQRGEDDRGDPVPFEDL
UniProt P9WNZ1, whole entry: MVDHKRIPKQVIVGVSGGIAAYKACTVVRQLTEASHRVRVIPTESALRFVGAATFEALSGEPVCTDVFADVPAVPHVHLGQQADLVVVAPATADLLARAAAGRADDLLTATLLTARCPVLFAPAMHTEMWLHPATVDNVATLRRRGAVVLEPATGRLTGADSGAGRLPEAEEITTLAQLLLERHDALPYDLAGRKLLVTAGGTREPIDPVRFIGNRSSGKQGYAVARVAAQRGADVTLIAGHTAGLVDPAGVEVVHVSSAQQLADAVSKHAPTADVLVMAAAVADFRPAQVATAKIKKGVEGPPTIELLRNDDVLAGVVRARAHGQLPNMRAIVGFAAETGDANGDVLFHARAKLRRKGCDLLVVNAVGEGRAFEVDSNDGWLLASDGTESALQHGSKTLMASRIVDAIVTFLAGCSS

LiHisRS: 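Histidine-tRNA ligase, Leishmania infantum (UniProt A4I591). Enzyme assay of histidyl-tRNA synthetase; the read-out is not stated. Concentration: 30 µM. Direction is inferred from retests: higher values go with stronger inhibition. The assay is labelled LdHisRS but filed under L. infantum. Size under these conditions: about 69,000 compounds, about 410 of them at 50% or above in at least one test.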
Leishmania in macrophages: 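Cell assay of Leishmania donovani living inside macrophages; the read-out is not stated. Concentration: 30 µM. Higher reads as stronger inhibition (inferred: compounds with an IC50 in retests scored well above the rest). Size under these conditions: about 69,000 compounds, about 1,000 of them at 50% or above in at least one test.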
CoaBC: 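Coenzyme A biosynthesis protein CoaBC, Mycobacterium tuberculosis (UniProt P9WNZ1). Enzyme assay of CoaBC with a phosphate dye (Biomol Green) read at 650 nm. Concentration: 30 µM. Higher reads as stronger inhibition, judged from the few compounds that gave an IC50. Most strong results did not repeat in a second test. About 67,000 compounds were tested under these conditions; 0.06% (about 40) showed 50% or more at least once.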

Each number is a percent effect as filed. How 0% and 100% were set is not recorded. Most values in the screen are low, and negative values occur. The compounds are a random part of those screened. Two or more numbers in one place are separate tests of the same structure; such repeats can differ widely.

* CCn1c(SCC(=O)N2CCOCC2)nc2cc(C)[nH]c2c1=O | LiHisRS: 2.632%; Leishmania in macrophages: 0.7346% & -27.94%; CoaBC: -2.278%
* O=C([C@H]1C[C@H]2OCC[C@H]2N(CC2CCOCC2)C1)N1CCCCO1 | LiHisRS: 12%; CoaBC: 3.75%
* O=C(c1cc(-n2cccn2)ccc1Cl)N1CCCC(N2CCCC2)C1 (centres undefined) | LiHisRS: 20%; Leishmania in macrophages: 9.41%; CoaBC: -5.825%
* CCS(=O)(=O)N1CCC2(CC1)CC(COC)N(c1ncccn1)C2 (centres undefined) | LiHisRS: 20%; CoaBC: 1.303%
* COc1ccc(C(=O)Nc2ccc3ncn(C(C)C)c(=O)c3c2)cc1 | LiHisRS: 10.11%; Leishmania in macrophages: 19.43%; CoaBC: -7.031%
* COCc1cc(CN(C)C(=O)c2c[nH]nc2-c2cccc(F)c2)n[nH]1 | LiHisRS: 0%; Leishmania in macrophages: -16.01%; CoaBC: -4.904%
* CCOc1ncccc1CNS(=O)(=O)c1ccc2c(c1)CCCC(=O)N2 | LiHisRS: 8.333%; Leishmania in macrophages: 31.69%; CoaBC: 6.25%
* CN(C)CC1CN(Cc2ccc(F)cc2)Cc2nccn2C1.O=C(O)C(F)(F)F.O=C(O)C(F)(F)F (centres undefined) | Leishmania in macrophages: 6.472%
* O=C(c1cccc(O)c1)N1C[C@@H](CN2CCCCC2)[C@@H](CO)C1 | LiHisRS: 9.375%; Leishmania in macrophages: 25.5%; CoaBC: 4.113%
* CCc1ccc2nc(C)cc(C(=O)N3C[C@H]4CCC[C@@]4(CO)C3)c2c1 | LiHisRS: 14.4%; CoaBC: -1.463%
* O=C(NCCn1nc(C2CCNC2)c2cccnc21)c1ccccn1 (centres undefined) | LiHisRS: 13.54%; CoaBC: 1.471%
* [H][C@]12CCN(C(=O)Nc3ccccc3C)CC[C@@]1([H])S(=O)(=O)N(C)C2 | Leishmania in macrophages: 9.701%
* Cc1noc(C)c1CN1CC[C@H]2C[C@@H](c3nccs3)O[C@@H]2C1 | LiHisRS: 10.53%; CoaBC: 7.455%
* CCc1nc(C2CCCN2CCC(=O)N2CCc3ccccc32)no1 (centres undefined) | LiHisRS: 7.273%; Leishmania in macrophages: -5.363%; CoaBC: 2.296%
* Cc1ccc(C(=O)N(C)Cc2cscn2)c(=O)[nH]1 | LiHisRS: 20%; Leishmania in macrophages: 14.84%; CoaBC: 6.613%
* CC(C)C1CN(C(=O)c2csc(CN(C)C)n2)CCC(=O)N1CC1CC1 (centres undefined) | LiHisRS: 5.714%; Leishmania in macrophages: 14.8%; CoaBC: 5.055%
* Cc1nn(C)c(Cl)c1C1CCCN1c1ncnc2c1CCC2 (centres undefined) | LiHisRS: 3.665%; Leishmania in macrophages: -27.23%; CoaBC: 9.13%
* COCc1nc(CN2CCOC(CN(C)c3cccnn3)C2)cs1 (centres undefined) | LiHisRS: 3.306%; Leishmania in macrophages: -4.648%; CoaBC: 9.287%
* CN1CC[C@H](N(Cc2ccccc2)CC2CC2)C[C@H](O)C1 | LiHisRS: 8.247%; Leishmania in macrophages: 31.47%; CoaBC: 1.35%
* COc1ncccc1CNC(=O)CN1CCCCCC1=O | LiHisRS: 17.6%; Leishmania in macrophages: 2.512%; CoaBC: -0.9756%
* Cc1ccc(N2CC[C@H]3CN(C(=O)c4ccn(C)n4)C[C@H]3C2)nn1 | LiHisRS: 22%; CoaBC: 3.695%
* CN(C)CCN(C)C(=O)c1cn(CC2CCCCC2)nn1 | LiHisRS: 13.25%; Leishmania in macrophages: -20.15%; CoaBC: -4.391%
* O=S(=O)(C1CC1)N1CCc2onc(COc3ccccn3)c2C1 | LiHisRS: 3.448%
* Cc1cc(CN2CCC(N(C)Cc3noc(C4CC4)n3)C2)on1 (centres undefined) | LiHisRS: 11.01%; Leishmania in macrophages: 11.66%; CoaBC: 0.7673%
* CN1CCN(C(=O)c2ccc(=O)n(C)c2)Cc2ccccc21 | LiHisRS: 9.231%; Leishmania in macrophages: 12.82%; CoaBC: 0.3373%
* Cc1cc(OCC(=O)N2CCCC(c3nccs3)C2)no1 (centres undefined) | LiHisRS: 5.172%; Leishmania in macrophages: -24.85%; CoaBC: -2.35%
* Cc1cc(=O)n(C)cc1NC(=O)Cc1cc(F)ccc1F | LiHisRS: 106.8%; Leishmania in macrophages: 6.253%; CoaBC: 7.09%
* CNc1cc(C2CN(C(=O)c3cscn3)CCO2)nc(C)n1 (centres undefined) | LiHisRS: 4.255%; Leishmania in macrophages: -41.95%; CoaBC: -19.51%
* COc1ccc(CN2CCC3(CC2)CCN(CC(C)C)C3=O)cc1 | LiHisRS: 14.63%; CoaBC: -1.693%
* CCc1ccc(C(=O)O)cc1S(=O)(=O)N(C)c1cccc(C#N)c1 | LiHisRS: 6.838%; Leishmania in macrophages: -15.78%; CoaBC: 2.564%
* CN(C)C(=O)N1CC2(CCOCC2)c2cc(NS(=O)(=O)C3CC3)ccc21 | LiHisRS: 15.38%; Leishmania in macrophages: 7.874%
* CC(=O)Nc1cccc(C(=O)N(C)C(C)Cc2cc(C)ccn2)c1 (centres undefined) | LiHisRS: 10%; Leishmania in macrophages: 7.119%; CoaBC: 0.495%
* CC[C@H]1CN(C(=O)C2CC2)CC[C@H]1CC(=O)NCCN1CCOCC1 | LiHisRS: 30.56%; Leishmania in macrophages: -123.3%; CoaBC: 8.804%
* Cc1ccccc1CNC(Cn1cncn1)c1ccccc1 (centres undefined) | LiHisRS: 10.96%; Leishmania in macrophages: -12.91%; CoaBC: 15.45%
* COc1cc(N2CCCC3(CCN(c4cncnc4)C3=O)C2)ncn1 (centres undefined) | LiHisRS: 28%; Leishmania in macrophages: 49.87%; CoaBC: 2.217%
* CNC[C@H]1CC[C@H](c2cc(CN(C)C(=O)c3cnccn3)n(C)n2)CC1 | LiHisRS: 14.29%; CoaBC: 8.252%
* CC(C)N1CC2(CCCN(c3ccccn3)C2)CCC1=O (centres undefined) | LiHisRS: 14.75%; Leishmania in macrophages: 24.82%; CoaBC: 0.5981%
* CNc1ncccc1CN1CCCCC1c1ccnc(N)n1 (centres undefined) | LiHisRS: 15.94%; Leishmania in macrophages: 23.65% & 16.81%; CoaBC: 1.942%

Once more, the final 3:

{"structure": "CNC[C@H]1CC[C@H](c2cc(CN(C)C(=O)c3cnccn3)n(C)n2)CC1", "LiHisRS": 14.29, "CoaBC": 8.252}
{"structure": "CC(C)N1CC2(CCCN(c3ccccn3)C2)CCC1=O", "stereo": "centres undefined", "LiHisRS": 14.75, "Leishmania in macrophages": 24.82, "CoaBC": 0.5981}
{"structure": "CNc1ncccc1CN1CCCCC1c1ccnc(N)n1", "stereo": "centres undefined", "LiHisRS": 15.94, "Leishmania in macrophages": "23.65 & 16.81", "CoaBC": 1.942}

The values are deposited in ChEMBL (CHEMBL3988442, “University of Dundee, Small-Polar-MMV Screening Library” (2021)).